# Reference: PubChem BioAssay AID624297 (National Center for Advancing Translational Sciences (NCATS), 2012)
# Among all 340,000 compounds or so, about 6,200 (1.8%) were called active. This list was built around the results that the source calls inconclusive (neither active nor inactive); the mix of calls is not that of the screen. Calls come from the whole dose curve; as a rule, active = well fitted activation curve with a large enough effect; inconclusive = small, poorly fitted or top-dose-only effect; inactive = no such curve, though single readings can be large or run the other way. Potencies of inconclusive entries are doubtful fits and often do not repeat.
# Experiment: A quantitative high throughput screen for small molecules that induce DNA re-replication in SW480 colon adenocarcinoma cells. For re-replication activation: % of control where 0% means no effect. Note: nearly all actives have a fitted effect of over 55% in size.
# Conditions: Hoechst DNA content imaging, 48 h; re-replication activation: at 46.1 µM (top of the series)
# Procedure, shortened: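 SW480 cells exposed to compounds for 48 hr at 37 C, 5% CO2, then Hoechst-stained 40 min. Nuclear DNA content imaged by fluorescence scanning (405 nm excitation, 500-530 nm emission); re-replication scored as increased high-intensity nuclei.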
# Potency is the fitted concentration of half-maximal effect.
SMILES,Potency,re-replication activation
CC(=O)c1ccc(OCCCC(=O)Nc2cccc(S(=O)(=O)N3CCCCC3)c2)cc1,inactive,–
Cc1cccc(C)c1NC(=O)CSc1nnc(-c2ccccc2)n1Cc1ccc2c(c1)OCO2,"inconclusive: 25.9 µM [activator, partial curve, poor fit]",–
O=C(NCCN1CCOCC1)c1cc(S(=O)(=O)Nc2ccccc2F)c(Cl)cc1Cl,"inconclusive: 6.51 µM [activator, single point]",–
Cc1[nH]c2c(C(=O)N3CCCC(CCC(=O)NCc4ccccc4F)C3)cccc2c1C (centres undefined),"inconclusive: 14.6 µM [activator, single point]",–
CC(C)c1ccc(NC(=S)NC2CCN(Cc3ccccc3)CC2)cc1,"inconclusive: 29.1 µM [activator, single point]",–
CCCCCOc1ccc(Br)cc1CSC(=N)N,"inconclusive: 29.1 µM [activator, single point]",–
O=[N+]([O-])c1ccc2nc(NS(=O)(=O)c3ccc(F)cc3)sc2c1,"inconclusive: 13 µM [activator, single point]",–
Cc1nnc(SCC(=O)Nc2ccc(OC(F)F)c(Cl)c2)n(N)c1=O,"inconclusive: 29.1 µM [activator, single point]",–
O=C(Cn1cnc2ccccc21)N/N=C/c1cccs1,inactive,–
COc1ccc(C2C(C(C)=O)=C(Nc3ccccc3)CC(C)(O)C2C(C)=O)cc1OC (centres undefined),"inconclusive: 6.51 µM [activator, partial curve, poor fit]",–
CC(NC(=O)C1CCCC1)C1CC2CCC1C2 (centres undefined),inactive,–
N#CCOC(=O)c1cc(S(=O)(=O)N2CCCCC2)ccc1N1CCOCC1,"inconclusive: 29.1 µM [activator, single point]",–
O=c1[nH]c(/C=C/c2ccc(Br)cc2)nc2ccccc12,inactive,–
O=C1c2ccccc2-c2onc3ccc(N4CCCC4)c1c23,"inconclusive: 16.4 µM [activator, single point]",–
O=C(O)CN1C(=O)S/C(=C\c2cccnc2)C1=O,–,inconclusive: -22.3% [activator]
COc1ccc(CCNC(=O)c2ccc3nc(-c4ccco4)c(-c4ccco4)nc3c2)cc1OC,"inconclusive: 16.4 µM [activator, single point]",–
O=C(NCCc1ccc(F)cc1)C1CCCCC1,"inconclusive: 3.26 µM [activator, partial curve, poor fit]",–
OCCOCCn1c(CCNc2nc(-c3ccc(F)cc3)cs2)nc2cc(C(F)(F)F)ccc21,inactive,–
O=C(O)c1ccc(Oc2ccc(S(=O)(=O)c3ccc(C(=O)O)c(C(=O)O)c3)cc2)cc1,"inconclusive: 6.51 µM [activator, single point]",–

# As entered above.
# Value of OCCOCCn1c(CCNc2nc(-c3ccc(F)cc3)cs2)nc2cc(C(F)(F)F)ccc21 under Potency: inactive
# Value of CC(NC(=O)C1CCCC1)C1CC2CCC1C2 (centres undefined) under Potency: inactive
